# Source: PubChem BioAssay AID686952 (The Scripps Research Institute Molecular Screening Center, 2013)
# Only a part is listed here, and it is no random draw. Active and inactive are the calls of the source.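 Rule for the calls: active = activation above the all-compound mean plus 3 SD, ignoring values outside control-based bounds (cut at about 4.8% in these data); inactive = the rest.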
# Experiment: EDANS-DABCYL substrate optical interference, artefact control for kallikrein-7 zymogen activator project, biochemical, fluorescence intensity, high throughput (AID 686952);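 note: value is the 4 h activation minus the activation read at time zero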
# Conditions: no enzyme, 4 h, at 7 µM, active compounds read high, solvent 0%, active enzyme control 100%
row,SMILES,activation
1,Oc1ccc2ccccc2c1CNc1cnc2ccccc2c1,active: 68.7%
2,COC(=O)COc1ccc2cc(-c3ccc(OC)cc3)c(=O)oc2c1,active: 73.2%
